# Measurements taken from the supplement of paper PMC10849652.
# Protein sequences, listed by entry. Tags and fused reporters are not part of them. Lines headed by an entry give the natural chain unless they say otherwise; changes in a name come on top.
# UniProt Q9H8M7: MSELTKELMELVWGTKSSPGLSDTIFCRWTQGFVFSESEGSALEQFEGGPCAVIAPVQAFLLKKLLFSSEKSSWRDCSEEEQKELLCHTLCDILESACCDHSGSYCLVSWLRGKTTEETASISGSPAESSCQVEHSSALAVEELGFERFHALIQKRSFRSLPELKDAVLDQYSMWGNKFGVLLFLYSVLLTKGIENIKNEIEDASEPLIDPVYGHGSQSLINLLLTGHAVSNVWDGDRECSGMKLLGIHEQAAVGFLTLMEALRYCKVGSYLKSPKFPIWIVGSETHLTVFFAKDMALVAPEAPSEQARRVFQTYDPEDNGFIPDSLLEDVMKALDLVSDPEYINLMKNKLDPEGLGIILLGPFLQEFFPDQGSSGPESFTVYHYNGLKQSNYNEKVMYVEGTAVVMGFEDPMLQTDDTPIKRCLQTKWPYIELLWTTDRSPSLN
# UniProt Q7L1V2: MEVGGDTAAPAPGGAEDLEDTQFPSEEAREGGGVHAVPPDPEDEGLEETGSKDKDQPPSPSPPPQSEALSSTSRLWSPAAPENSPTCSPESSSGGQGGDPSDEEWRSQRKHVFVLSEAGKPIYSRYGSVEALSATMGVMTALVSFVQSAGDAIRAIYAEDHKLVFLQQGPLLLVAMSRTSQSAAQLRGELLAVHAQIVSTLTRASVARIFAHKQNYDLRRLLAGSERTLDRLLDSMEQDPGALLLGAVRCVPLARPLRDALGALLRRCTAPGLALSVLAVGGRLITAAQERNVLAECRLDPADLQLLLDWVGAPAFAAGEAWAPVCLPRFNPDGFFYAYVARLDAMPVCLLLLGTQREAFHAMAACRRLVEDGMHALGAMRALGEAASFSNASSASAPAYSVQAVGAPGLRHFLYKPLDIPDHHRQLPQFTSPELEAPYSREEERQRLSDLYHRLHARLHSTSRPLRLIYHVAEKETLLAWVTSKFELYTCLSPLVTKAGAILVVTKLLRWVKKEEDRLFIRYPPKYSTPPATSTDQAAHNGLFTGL
# UniProt Q5XKP0: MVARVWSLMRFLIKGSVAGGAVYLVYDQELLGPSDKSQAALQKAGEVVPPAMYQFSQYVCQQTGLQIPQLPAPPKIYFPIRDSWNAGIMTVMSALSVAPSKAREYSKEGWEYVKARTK
# UniProt Q8N108: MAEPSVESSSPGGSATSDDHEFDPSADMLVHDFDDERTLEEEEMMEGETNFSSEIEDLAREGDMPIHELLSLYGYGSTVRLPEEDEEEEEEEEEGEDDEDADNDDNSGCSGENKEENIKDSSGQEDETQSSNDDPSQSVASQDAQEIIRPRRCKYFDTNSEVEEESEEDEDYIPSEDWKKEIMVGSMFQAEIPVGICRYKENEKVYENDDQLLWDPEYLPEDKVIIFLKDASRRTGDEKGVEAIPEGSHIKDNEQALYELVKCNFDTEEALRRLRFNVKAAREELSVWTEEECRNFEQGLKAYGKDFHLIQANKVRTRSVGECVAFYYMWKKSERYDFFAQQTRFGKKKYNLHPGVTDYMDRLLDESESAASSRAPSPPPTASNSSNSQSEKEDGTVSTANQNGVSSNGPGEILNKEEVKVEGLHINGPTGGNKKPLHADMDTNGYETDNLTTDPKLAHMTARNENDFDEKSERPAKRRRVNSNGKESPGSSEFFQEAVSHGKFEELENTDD
# UniProt Q6WCQ1: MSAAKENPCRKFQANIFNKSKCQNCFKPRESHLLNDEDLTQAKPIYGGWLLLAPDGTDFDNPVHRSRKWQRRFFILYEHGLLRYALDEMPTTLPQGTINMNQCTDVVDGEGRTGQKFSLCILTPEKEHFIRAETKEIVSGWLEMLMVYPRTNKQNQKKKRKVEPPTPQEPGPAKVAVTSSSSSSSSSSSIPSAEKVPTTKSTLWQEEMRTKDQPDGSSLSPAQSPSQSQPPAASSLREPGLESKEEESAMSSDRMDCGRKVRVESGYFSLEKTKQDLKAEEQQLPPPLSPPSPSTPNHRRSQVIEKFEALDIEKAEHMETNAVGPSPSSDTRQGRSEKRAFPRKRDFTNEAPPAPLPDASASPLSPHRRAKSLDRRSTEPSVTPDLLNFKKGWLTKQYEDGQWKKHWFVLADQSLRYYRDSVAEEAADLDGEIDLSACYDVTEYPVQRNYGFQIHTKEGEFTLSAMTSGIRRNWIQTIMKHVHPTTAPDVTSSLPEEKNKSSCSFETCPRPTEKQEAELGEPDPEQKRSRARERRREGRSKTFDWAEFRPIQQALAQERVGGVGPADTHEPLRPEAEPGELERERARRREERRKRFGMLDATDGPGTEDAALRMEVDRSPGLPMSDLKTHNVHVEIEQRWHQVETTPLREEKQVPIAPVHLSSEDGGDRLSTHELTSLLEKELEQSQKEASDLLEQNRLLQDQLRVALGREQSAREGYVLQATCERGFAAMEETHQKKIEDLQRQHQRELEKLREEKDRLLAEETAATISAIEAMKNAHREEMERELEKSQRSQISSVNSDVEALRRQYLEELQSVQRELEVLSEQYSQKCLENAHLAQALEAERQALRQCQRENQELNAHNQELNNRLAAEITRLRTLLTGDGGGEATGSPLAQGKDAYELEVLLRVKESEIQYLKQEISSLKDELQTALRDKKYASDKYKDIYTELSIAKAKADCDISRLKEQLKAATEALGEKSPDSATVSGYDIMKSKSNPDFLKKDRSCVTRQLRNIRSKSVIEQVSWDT
# UniProt Q8TDZ2: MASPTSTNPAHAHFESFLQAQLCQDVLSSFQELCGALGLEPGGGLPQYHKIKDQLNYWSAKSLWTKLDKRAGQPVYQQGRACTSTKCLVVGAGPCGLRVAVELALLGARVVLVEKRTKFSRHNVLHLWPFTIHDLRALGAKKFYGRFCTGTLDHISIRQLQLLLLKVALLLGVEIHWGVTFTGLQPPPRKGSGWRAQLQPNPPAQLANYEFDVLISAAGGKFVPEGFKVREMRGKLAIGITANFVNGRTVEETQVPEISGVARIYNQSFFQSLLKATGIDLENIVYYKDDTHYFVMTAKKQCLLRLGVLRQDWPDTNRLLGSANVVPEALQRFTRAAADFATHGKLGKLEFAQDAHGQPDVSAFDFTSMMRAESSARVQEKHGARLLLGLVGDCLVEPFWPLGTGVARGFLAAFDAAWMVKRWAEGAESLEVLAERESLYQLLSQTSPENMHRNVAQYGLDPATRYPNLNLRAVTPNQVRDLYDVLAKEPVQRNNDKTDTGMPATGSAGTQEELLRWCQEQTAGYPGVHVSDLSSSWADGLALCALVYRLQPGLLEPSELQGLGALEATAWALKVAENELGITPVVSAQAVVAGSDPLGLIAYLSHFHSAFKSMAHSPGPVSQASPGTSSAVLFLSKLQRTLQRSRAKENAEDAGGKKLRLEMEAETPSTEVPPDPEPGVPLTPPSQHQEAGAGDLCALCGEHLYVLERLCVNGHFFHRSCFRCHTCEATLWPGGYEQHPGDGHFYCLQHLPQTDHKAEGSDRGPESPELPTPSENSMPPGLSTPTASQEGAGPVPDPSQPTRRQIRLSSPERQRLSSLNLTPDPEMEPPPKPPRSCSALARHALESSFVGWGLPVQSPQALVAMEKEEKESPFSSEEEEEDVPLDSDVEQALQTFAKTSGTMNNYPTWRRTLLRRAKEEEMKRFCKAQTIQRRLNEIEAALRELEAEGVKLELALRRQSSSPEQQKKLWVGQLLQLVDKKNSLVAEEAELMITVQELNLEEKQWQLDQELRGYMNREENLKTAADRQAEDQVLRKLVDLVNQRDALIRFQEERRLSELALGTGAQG
# UniProt P40692: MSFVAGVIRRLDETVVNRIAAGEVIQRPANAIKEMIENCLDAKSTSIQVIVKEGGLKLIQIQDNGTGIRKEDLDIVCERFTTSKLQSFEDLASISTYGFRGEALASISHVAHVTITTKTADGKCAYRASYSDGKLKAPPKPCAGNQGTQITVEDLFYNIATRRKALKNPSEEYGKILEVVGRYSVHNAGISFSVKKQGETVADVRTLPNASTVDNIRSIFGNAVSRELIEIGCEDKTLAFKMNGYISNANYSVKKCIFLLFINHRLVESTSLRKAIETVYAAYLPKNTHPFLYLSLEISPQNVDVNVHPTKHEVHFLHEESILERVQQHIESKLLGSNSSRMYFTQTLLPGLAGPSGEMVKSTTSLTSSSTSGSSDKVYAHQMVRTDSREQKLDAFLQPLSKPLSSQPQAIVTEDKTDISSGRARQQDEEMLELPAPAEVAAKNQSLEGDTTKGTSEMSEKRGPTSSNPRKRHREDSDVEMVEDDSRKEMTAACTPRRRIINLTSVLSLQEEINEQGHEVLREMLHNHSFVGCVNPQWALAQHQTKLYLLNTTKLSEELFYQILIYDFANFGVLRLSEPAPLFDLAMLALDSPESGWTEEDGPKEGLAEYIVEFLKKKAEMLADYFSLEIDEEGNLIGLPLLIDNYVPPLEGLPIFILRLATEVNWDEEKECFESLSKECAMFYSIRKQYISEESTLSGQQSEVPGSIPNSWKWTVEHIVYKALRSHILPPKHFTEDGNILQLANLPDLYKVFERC
# UniProt O00566: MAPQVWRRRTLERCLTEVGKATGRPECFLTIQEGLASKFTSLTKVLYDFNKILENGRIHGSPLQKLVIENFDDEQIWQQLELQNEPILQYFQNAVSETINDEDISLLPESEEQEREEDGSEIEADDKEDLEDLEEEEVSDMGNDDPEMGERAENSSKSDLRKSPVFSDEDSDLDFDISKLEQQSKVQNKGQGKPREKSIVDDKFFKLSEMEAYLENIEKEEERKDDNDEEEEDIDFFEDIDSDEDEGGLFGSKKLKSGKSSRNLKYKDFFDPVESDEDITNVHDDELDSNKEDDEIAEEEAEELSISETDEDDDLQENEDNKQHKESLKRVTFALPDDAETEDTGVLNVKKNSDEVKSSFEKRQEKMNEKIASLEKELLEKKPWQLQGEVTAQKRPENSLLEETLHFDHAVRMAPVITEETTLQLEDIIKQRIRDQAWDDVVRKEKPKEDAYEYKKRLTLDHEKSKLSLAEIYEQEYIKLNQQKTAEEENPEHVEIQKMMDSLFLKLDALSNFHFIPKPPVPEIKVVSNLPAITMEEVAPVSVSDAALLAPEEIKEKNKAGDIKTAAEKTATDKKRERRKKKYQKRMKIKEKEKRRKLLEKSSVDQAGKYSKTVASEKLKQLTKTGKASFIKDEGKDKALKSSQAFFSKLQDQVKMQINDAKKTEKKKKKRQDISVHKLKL
# UniProt Q96EY8: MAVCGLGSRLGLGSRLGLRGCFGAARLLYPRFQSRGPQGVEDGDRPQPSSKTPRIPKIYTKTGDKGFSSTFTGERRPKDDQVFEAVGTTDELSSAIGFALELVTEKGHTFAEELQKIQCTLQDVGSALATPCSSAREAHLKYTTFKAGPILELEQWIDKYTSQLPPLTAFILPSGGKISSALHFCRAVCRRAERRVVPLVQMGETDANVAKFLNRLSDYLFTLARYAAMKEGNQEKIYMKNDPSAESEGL
# UniProt Q13015: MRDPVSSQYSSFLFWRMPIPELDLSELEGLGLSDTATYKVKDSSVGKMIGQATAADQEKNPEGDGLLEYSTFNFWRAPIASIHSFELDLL
# UniProt P51948: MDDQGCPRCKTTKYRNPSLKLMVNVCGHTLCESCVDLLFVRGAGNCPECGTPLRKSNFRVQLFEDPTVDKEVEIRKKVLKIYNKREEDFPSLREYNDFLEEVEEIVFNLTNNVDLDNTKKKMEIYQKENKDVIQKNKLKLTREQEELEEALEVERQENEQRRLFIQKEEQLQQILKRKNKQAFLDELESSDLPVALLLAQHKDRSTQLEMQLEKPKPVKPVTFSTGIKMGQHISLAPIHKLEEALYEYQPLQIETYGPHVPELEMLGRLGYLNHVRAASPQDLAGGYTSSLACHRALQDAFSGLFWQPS
# UniProt Q9UBU8, whole entry, looked up: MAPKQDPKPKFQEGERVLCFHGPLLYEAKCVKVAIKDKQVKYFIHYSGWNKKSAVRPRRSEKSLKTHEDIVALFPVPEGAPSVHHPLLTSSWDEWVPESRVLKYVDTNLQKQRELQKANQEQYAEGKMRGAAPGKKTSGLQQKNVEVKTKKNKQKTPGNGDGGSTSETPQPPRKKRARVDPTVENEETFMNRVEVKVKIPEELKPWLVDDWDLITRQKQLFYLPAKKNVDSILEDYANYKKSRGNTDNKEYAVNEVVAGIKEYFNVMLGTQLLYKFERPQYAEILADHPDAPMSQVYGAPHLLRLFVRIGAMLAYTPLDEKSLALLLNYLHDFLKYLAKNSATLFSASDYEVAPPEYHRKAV
# UniProt O14880: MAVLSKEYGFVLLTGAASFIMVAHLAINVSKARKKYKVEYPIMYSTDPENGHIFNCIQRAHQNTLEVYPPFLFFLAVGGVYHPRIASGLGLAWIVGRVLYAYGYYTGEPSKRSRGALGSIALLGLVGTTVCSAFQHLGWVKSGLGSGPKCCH
# UniProt O75352: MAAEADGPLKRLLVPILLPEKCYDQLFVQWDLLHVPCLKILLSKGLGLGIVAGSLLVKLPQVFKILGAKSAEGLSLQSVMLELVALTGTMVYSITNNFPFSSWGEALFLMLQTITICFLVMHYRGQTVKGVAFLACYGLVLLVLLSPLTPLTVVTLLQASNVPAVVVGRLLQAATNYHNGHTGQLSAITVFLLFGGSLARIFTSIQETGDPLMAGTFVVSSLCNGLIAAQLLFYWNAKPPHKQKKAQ
# The other results are listed elsewhere or left out.
# Tests used:
# Assay in all cases: log2 fold change, soluble protein after heating vs DMSO (PISA); higher = thermal stabilisation; K562 lysate, 10 uM; active = over 0.2 and 3.5 SD of the protein, either way, in both replicates (recomputed)
# [1] = compound: CN1CC[C@H](c2c(O)cc(O)c3c(=O)cc(-c4ccccc4Cl)oc23)[C@H](O)C1 [alvocidib]
# In short: (§1)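 K562 pellets were dounce-homogenised in PBS pH 7.4 with 1 mM MgCl2, and the crude extract at 1 mg/mL protein was treated with 10 μM compound for 30 min. Aliquots were heated for 3 min across 48°C-58°C, pooled, and brought to 0.5% NP-40 at 4°C; soluble protein was the supernatant after 21,000xg for 90 min. Soluble protein was quantified by TMTpro 16plex LC-MS/MS with channel sums equalised, and reported as log2 fold change in thermal stability against DMSO controls, with values from duplicates.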
# [2] = compound: CN1CCc2c(c3ccccc3n2Cc2ccc(C(=O)NO)cc2)C1 [Tubastatin A]
# In short: as §1
# [3] = compound: CNC(=O)C1=CC=CC=C1NC2=NC(=NC=C2Cl)NC3=C(C=C(C=C3)N4CCOCC4)OC
# In short: as §1
# [4] = compound: CNC(=O)c1ccc(Nc2ncc(C(F)(F)F)c(NCc3nccnc3N(C)S(C)(=O)=O)n2)cc1 [defactinib]
# In short: as §1
# [5] = compound: CNc1nc(-c2ccc3c(N)n[nH]c3c2)cc(N2C[C@@H](C(=O)NC3CCCCC3)CC[C@H]2C)n1
# In short: as §1
# [6] = compound: COC(=O)N[C@@H](C)CNc1nccc(-c2cn(C(C)C)nc2-c2cc(Cl)cc(NS(C)(=O)=O)c2F)n1 [encorafenib]
# In short: as §1
# [7] = compound: COC(=O)[C@H](CCSC)NC(=O)C1=C(C=C(C=C1)NC[C@H](CS)N)C2=CC=CC=C2
# In short: as §1
# [8] = compound: COc1cc(Nc2ncc3c(n2)-c2ccc(Cl)cc2C(c2c(F)cccc2OC)=NC3)ccc1C(=O)O [alisertib]
# In short: as §1
# [9] = compound: COc1cc2nc(-c3cc(F)ccc3O)nc(N[C@@H]3CNC[C@H]3C(C)(C)O)c2cc1OC
# In short: as §1
# [10] = compound: COc1cc2ncnc(Nc3ccc(F)c(Cl)c3)c2cc1OCCCN1CCOCC1 [gefitinib]
# In short: as §1
Target,log2 fold change [1],log2 fold change [2],log2 fold change [3],log2 fold change [4],log2 fold change [5],log2 fold change [6],log2 fold change [7],log2 fold change [8],log2 fold change [9],log2 fold change [10]
MINDY3 (UniProt Q9H8M7),inactive: -0.036,inactive: -0.006,inactive: -0.014,inactive: 0.032,inactive: -0.025,inactive: -0.001,inactive: -0.051,inactive: -0.01,inactive: -0.018,inactive: 0
MON1B (UniProt Q7L1V2),inactive: -0.023,inactive: 0.022,inactive: 0.054,inactive: -0.004,inactive: 0.015,inactive: 0.022,inactive: -0.1,inactive: 0.029,inactive: 0.007,inactive: 0.017
MRPL14 (UniProt Q6P1L8),inactive: 0.096,inactive: -0.089,inactive: -0.015,inactive: -0.156,inactive: -0.029,inactive: -0.044,inactive: -0.16,inactive: -0.02,inactive: -0.046,inactive: 0.068
MICOS10 (UniProt Q5TGZ0),inactive: -0.052,inactive: -0.027,inactive: 0.081,inactive: 0.106,inactive: -0.031,inactive: 0.013,inactive: 0,inactive: -0.017,inactive: -0.059,inactive: -0.052
MICOS13 (UniProt Q5XKP0),inactive: 0.048,inactive: -0.18,inactive: 0.012,inactive: 0.081,inactive: 0.03,inactive: -0.029,inactive: 0.18,inactive: 0.013,inactive: -0.13,inactive: 0.025
MIS12 (UniProt Q9H081),inactive: -0.014,inactive: -0.025,inactive: 0.079,inactive: 0.008,inactive: 0.05,inactive: -0.007,inactive: 0.122,inactive: -0.021,inactive: 0.005,inactive: -0.078
MOCS1 isoform 8 (UniProt Q9NZB8),inactive: -0.108,inactive: -0.008,inactive: 0.002,inactive: 0.113,inactive: -0.105,inactive: 0.039,inactive: -0.055,inactive: -0.099,inactive: 0.003,active: 0.395
MIER1 isoform 12 (UniProt Q8N108),inactive: -0.011,inactive: -0.018,inactive: -0.021,inactive: -0.014,inactive: 0.007,inactive: -0.007,inactive: 0.024,inactive: -0.02,inactive: 0.006,inactive: -0.04
MIER2 (UniProt Q8N344),inactive: -0.21,inactive: 0.03,inactive: 0.126,inactive: -0.094,inactive: -0.027,inactive: 0.102,inactive: -0.099,–,–,–
MPRIP isoform 2 (UniProt Q6WCQ1),inactive: -0.022,inactive: -0.086,inactive: -0.021,inactive: -0.01,inactive: 0.033,inactive: 0.018,inactive: -0.056,inactive: 0.063,inactive: -0.09,inactive: -0.053
MRFAP1 (UniProt Q9Y605),inactive: 0.081,inactive: -0.044,inactive: 0.051,inactive: -0.096,inactive: -0.016,inactive: 0.012,inactive: -0.056,inactive: 0.084,inactive: -0.061,inactive: 0.026
MICAL1 isoform 4 (UniProt Q8TDZ2),inactive: 0.012,inactive: 0.041,inactive: 0.048,inactive: -0.004,inactive: -0.057,inactive: -0.008,inactive: -0.014,inactive: 0.098,inactive: -0.01,inactive: 0.013
MPLKIP (UniProt Q8TAP9),inactive: -0.005,inactive: -0.004,inactive: -0.018,inactive: -0.045,inactive: -0.07,inactive: -0.033,inactive: -0.046,inactive: 0.044,inactive: 0.029,inactive: 0.115
MLH1 (UniProt P40692),inactive: 0.011,inactive: -0.167,inactive: -0.039,inactive: 0.004,inactive: -0.013,inactive: 0.044,inactive: 0.129,inactive: -0.01,inactive: 0.048,inactive: -0.053
MIF (UniProt P14174),inactive: -0.109,active: 0.545,inactive: 0.103,inactive: -0.05,inactive: -0.145,inactive: -0.028,inactive: -0.013,inactive: 0.005,inactive: -0.006,inactive: 0.068
MPHOSPH10 (UniProt O00566),inactive: 0.052,inactive: -0.068,inactive: 0.044,inactive: 0.035,inactive: -0.055,inactive: -0.012,inactive: 0.041,inactive: 0.049,inactive: -0.037,inactive: -0.004
MMAB (UniProt Q96EY8),inactive: 0.013,inactive: 0.064,inactive: -0.003,inactive: 0.029,inactive: 0.087,inactive: 0,inactive: -0.06,inactive: -0.058,inactive: -0.006,inactive: -0.042
MLLT11 (UniProt Q13015),inactive: 0.056,inactive: -0.052,inactive: 0.108,inactive: 0.086,inactive: -0.019,inactive: 0.138,inactive: 0.099,inactive: 0.115,inactive: 0.067,inactive: 0.023
MPC2 (UniProt O95563),inactive: -0.093,inactive: -0.096,inactive: -0.02,inactive: -0.039,inactive: 0.059,inactive: -0.019,inactive: 0.016,inactive: 0.023,inactive: -0.011,inactive: 0.036
MNAT1 (UniProt P51948),inactive: -0.021,inactive: 0.005,inactive: -0.006,inactive: -0.105,inactive: 0.073,inactive: 0.037,inactive: -0.041,inactive: 0.024,inactive: -0.005,inactive: -0.016
MGAT1 (UniProt P26572),inactive: -0.044,inactive: 0.025,inactive: -0.068,inactive: 0.058,inactive: -0.224,inactive: 0.011,inactive: 0.081,inactive: 0.049,inactive: -0.079,inactive: -0.028
MPZL1 (UniProt O95297),inactive: -0.01,inactive: 0.048,inactive: -0.014,inactive: 0.01,inactive: 0.028,inactive: 0.045,inactive: -0.082,inactive: 0.007,inactive: 0.012,inactive: 0.016
MON2 isoform 5 (UniProt Q7Z3U7),inactive: 0.003,inactive: -0.149,inactive: 0.018,inactive: 0.023,inactive: -0.014,inactive: 0.034,inactive: -0.035,inactive: -0.004,inactive: 0,inactive: 0.005
MKNK1 (UniProt Q9BUB5),inactive: 0.021,inactive: -0.023,inactive: 0.049,inactive: -0.053,inactive: 0.009,inactive: 0.054,inactive: -0.022,inactive: 0.022,inactive: 0.015,inactive: 0.134
MORF4L1 isoform 2 (UniProt Q9UBU8),inactive: -0.01,inactive: 0.001,inactive: -0.001,inactive: -0.005,active: 0.247,inactive: -0.023,inactive: -0.021,inactive: 0.045,inactive: 0.044,inactive: 0.008
MRPL15 (UniProt Q9P015),inactive: -0.122,inactive: 0.022,inactive: -0.014,inactive: -0.011,inactive: 0.088,inactive: 0.053,inactive: -0.013,inactive: 0.006,inactive: -0.014,inactive: -0.027
MOB1B isoform 2 (UniProt Q7L9L4),inactive: -0.053,inactive: 0.046,inactive: 0.02,inactive: -0.035,inactive: 0.026,inactive: -0.014,inactive: -0.019,inactive: -0.061,inactive: 0.027,inactive: 0.027
MGST3 (UniProt O14880),inactive: 0.071,inactive: 0.043,inactive: 0.054,inactive: 0,inactive: 0.029,inactive: -0.04,inactive: 0.052,inactive: 0.026,inactive: -0.005,inactive: -0.038
MICU2 (UniProt Q8IYU8),inactive: 0.03,inactive: -0.039,inactive: 0.01,inactive: 0.003,inactive: 0.009,inactive: 0.015,inactive: -0.091,inactive: 0.039,inactive: -0.128,inactive: -0.054
MPDU1 (UniProt O75352),inactive: -0.099,inactive: -0.011,inactive: 0.002,inactive: 0,inactive: 0.106,inactive: 0.018,inactive: -0.017,inactive: 0.016,inactive: -0.011,inactive: 0.018

# Random excerpt: 2 records from the list
Target,log2 fold change [1],log2 fold change [2],log2 fold change [3],log2 fold change [4],log2 fold change [5],log2 fold change [6],log2 fold change [7],log2 fold change [8],log2 fold change [9],log2 fold change [10]
MRPL15 (UniProt Q9P015),inactive: -0.122,inactive: 0.022,inactive: -0.014,inactive: -0.011,inactive: 0.088,inactive: 0.053,inactive: -0.013,inactive: 0.006,inactive: -0.014,inactive: -0.027
MLLT11 (UniProt Q13015),inactive: 0.056,inactive: -0.052,inactive: 0.108,inactive: 0.086,inactive: -0.019,inactive: 0.138,inactive: 0.099,inactive: 0.115,inactive: 0.067,inactive: 0.023
